# Assay results reported in patent publication US10736316B2, “Silica particles functionalized and loaded with fungicidal agents, their manufacture and their use as systems of targeted and controlled release of fungicides” (priority 2015, dated 2020).
# Assay: Fungicide residue in fruit, oranges of Navel variety inoculated with P. digitatum
# Settings: example 10
substance,measurement,setting,value
imazalil sulfate [IMZ REF],IMZ residue in fruit,"oranges Navel, P. digitatum, after 7 days at 22° C. and 85% RH",1.10 mg/kg
same,Reduction of residues in fruit,versus reference treatment IMZ REF,0.0%
